Laboratory results reported in publication PMC8498969, “An Integrated Systems Biology Approach Identifies the Proteasome as A Critical Host Machinery for ZIKV and DENV Replication” (Genomics, Proteomics & Bioinformatics, 2021).
These are yes or no findings as the source states them, for the method shown. For some assays here: In cells and extracts the contact can be indirect. Some entries that bind do so weakly or less than the wild type.

Protein sequences, listed by entry. Tags and fused reporters are not part of them. Chains listed by the source or under a name are the forms on record and can include a tag or linker. Residues count along the entry.
FLAG-tagged ZIKV NS3 (Zika virus (strain not stated for this construct)) (Q32ZE1, residues 1499-2115): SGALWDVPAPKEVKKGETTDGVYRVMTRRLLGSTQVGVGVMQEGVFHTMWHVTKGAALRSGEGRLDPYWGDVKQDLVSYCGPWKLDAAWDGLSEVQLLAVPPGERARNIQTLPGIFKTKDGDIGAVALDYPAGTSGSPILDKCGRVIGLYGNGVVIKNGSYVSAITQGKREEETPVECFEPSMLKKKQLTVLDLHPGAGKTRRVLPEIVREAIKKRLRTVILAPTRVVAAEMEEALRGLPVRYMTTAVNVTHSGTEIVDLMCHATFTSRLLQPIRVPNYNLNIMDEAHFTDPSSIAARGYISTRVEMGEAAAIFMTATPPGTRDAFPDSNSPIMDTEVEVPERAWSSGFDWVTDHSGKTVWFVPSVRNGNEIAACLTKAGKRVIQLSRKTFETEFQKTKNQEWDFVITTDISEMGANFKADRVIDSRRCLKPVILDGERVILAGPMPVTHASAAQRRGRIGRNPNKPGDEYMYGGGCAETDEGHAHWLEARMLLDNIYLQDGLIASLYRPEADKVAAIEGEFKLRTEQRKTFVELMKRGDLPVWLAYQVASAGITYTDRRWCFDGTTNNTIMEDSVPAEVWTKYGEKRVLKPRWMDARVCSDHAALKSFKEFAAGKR
ZIKV-NS4A, N-terminal GST fusion, Cy5-labelled (Q32ZE1, residues 2116-2242): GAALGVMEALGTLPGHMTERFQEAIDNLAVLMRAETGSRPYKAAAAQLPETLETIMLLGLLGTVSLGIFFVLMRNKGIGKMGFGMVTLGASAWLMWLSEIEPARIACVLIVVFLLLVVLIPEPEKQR
UniProt P25788: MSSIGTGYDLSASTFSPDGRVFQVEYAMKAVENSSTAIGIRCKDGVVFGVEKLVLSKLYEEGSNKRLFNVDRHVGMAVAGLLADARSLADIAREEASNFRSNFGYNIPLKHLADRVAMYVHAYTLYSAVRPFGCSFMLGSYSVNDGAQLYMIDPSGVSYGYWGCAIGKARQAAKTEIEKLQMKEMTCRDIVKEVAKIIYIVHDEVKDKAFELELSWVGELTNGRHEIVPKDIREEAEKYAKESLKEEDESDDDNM

Columns and labels:
[1] = biological target: FLAG-tagged ZIKV NS3 (Zika virus (strain not stated for this construct)) (UniProt Q32ZE1); test: co-IP; FLAG-tagged ZIKV protein and V5-tagged proteasome subunit overexpressed in HEK293FT; IP with anti-FLAG mAb magnetic beads at 4 °C overnight, six washes in lysis buffer, blot with anti-V5; mouse IgG beads as negative control
[2] = biological target: T1, API5 on the HuProt array (human) (UniProt Q9BZZ5); test: peptide or protein array; both purified
T1 sequence: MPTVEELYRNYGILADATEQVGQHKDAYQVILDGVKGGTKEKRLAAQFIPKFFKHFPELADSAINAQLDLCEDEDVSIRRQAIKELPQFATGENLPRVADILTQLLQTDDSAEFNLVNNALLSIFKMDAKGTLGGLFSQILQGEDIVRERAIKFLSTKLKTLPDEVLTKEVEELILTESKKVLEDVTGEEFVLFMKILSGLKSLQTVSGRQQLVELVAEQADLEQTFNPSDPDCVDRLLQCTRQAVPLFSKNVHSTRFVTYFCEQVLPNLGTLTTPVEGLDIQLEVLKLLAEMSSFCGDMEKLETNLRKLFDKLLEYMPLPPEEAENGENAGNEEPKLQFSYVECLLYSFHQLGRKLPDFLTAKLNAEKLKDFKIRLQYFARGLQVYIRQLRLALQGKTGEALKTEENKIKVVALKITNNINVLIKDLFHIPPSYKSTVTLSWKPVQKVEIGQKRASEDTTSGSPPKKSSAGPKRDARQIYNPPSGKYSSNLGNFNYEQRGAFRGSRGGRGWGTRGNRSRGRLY

Row | Substance | binding [1] | binding [2]
1 | V5-tagged human proteasome subunit PSMA3 (from UniProt P25788 1-255) | binds | 
2 | ZIKV-NS4A, N-terminal GST fusion, Cy5-labelled (from UniProt Q32ZE1 2116-2242) |  | binds
